This note sets out measurements from PubChem BioAssay AID2685 (National Center for Advancing Translational Sciences (NCATS), 2010).

This assay can be described thus: qHTS Assay for Lipid Storage Modulators in Drosophila S3 Cells.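 On cell number change: cells counted by Cell Tracker Red CMTPX staining in the red channel.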 To be noted: BODIPY lipid droplet fluorescence, 18-24 h; for cell number change: measured here: cell count max response, cells fed with added oleic acid. The gist of the method:
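Laser-scanning cytometry quantifies lipid droplet accumulation (500–530 nm total intensity; droplet/cell object ratio) in oleic acid-fed (400 uM added) Drosophila S3 cells treated with a concentration series. 20 uM Triacsin C defined 100% inhibition.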
A general note: qHTS replaces the single test concentration by a dilution series.

Setting [1] is: measured here: cell number channel AC50, cells fed with added oleic acid.
The mark [2] stands for this setting: measured here: lipid fluorescence (Fed channel) AC50, cells fed with added oleic acid.

The structures appear in SMILES notation. The list shows a part of the results. Shown are side measurements of this screen, not its main read-out; they come without a call. Compounds called inactive in the main read-out are mostly missing here. Words in brackets tell the shape of the fitted curve; partial curves, single points and poor fits give uncertain potencies.

A word on the AC50: it is the concentration giving half of the maximal activity seen. As for `Cc1ccc(C(=O)NN2C(=O)C3C4C=CC([C@@H]3C2=O)C42CC2)cc1` (stereo partly specified), the cell number change is -9.52%. Besides, under setting [1], the AC50 is 2.31 µM [falling, single point]. Moreover, the AC50 under setting [2] is 2.31 µM [rising, single point].

On to `O=C(Cc1ccc([N+](=O)[O-])cc1)Nc1ccc2c(c1)CCC2`, for which the cell number change was determined as 13%. For the same molecule, the AC50 under setting [2] was 29.1 µM [falling, single point].

As for `CCC1=C(C(=O)OC)C(c2cc(OC)ccc2OC)C(C#N)=C(N)O1` (stereo unspecified), the AC50 under setting [2] was 2.31 µM [rising, partial curve].

In the case of `Cc1ccc(C(=O)N2CCCC(Nc3ccc(F)c(F)c3)C2)cn1` (stereo unspecified), the cell number change is 2.55%. Further, the half-maximal activity concentration (AC50) under setting [2] was 6.51 µM [rising, single point].

Take `CC1(C)CC(=O)C(C2c3ccccc3S(=O)(=O)c3ccccc32)C(=O)C1`: the cell number change is -25.2%. Further, under setting [1], the AC50 was 0.13 µM [falling, full curve, poor fit]. Also, the AC50 under setting [2] was 0.146 µM [falling, full curve, poor fit].

With `COc1ccc(Br)cc1S(=O)(=O)N1CCN=C1c1ccccc1`, the cell number change stood at 1.7%. Moreover, the AC50 under setting [2] was 0.58 µM [falling, single point].

With `Cc1cc(C)c(C)c(S(=O)(=O)NC(C(=O)NCCc2ccco2)C(C)C)c1C` (stereo unspecified), the cell number change is -13.3%. Besides, the concentration at half-maximal activity (AC50) under setting [2] was 0.0058 µM [rising, full curve, poor fit].

For the molecule `C#CCOCCOCCOCCNc1nc(N2CCN(C(=O)[C@H]([C@@H](C)CC)n3cc(CCCCN)nn3)CC2)nc(N2CCN(C(=O)[C@H](CCCCN)n3cc(CCCC)nn3)CC2)n1`, the cell number change is -40%. Moreover, the AC50 under setting [1] was 4.11 µM [falling, full curve, poor fit]. Also, the AC50 under setting [2] was 2.59 µM [falling, full curve].

On to `Cc1nn(CC(=O)N2c3ccccc3NC(=O)C2(C)C)c(C)c1[N+](=O)[O-]`, for which the cell number change is 71%. Moreover, under setting [1], the AC50 was 0.231 µM [rising, full curve]. Besides, the AC50 under setting [2] is 20.6 µM [rising, partial curve].

`Cc1cccc(NC(=O)c2cccnc2)c1`: the concentration at half-maximal activity (AC50) under setting [2] was 18.4 µM [rising, single point].

`COc1ccc2nc(N3C(=O)CC(Cc4ccc(Cl)cc4)C3=O)sc2c1` (stereo unspecified): the cell number change amounted to 24.8%. Also, the concentration at half-maximal activity (AC50) under setting [2] was 29.1 µM [rising, single point].

In the case of `CCc1nc(SCC(=O)NCc2ccc(F)cc2)c2c(=O)n(C)c(=O)n(C)c2n1`, the cell number change is 43.1%. For the same molecule, the half-maximal activity concentration (AC50) under setting [1] was 0.00461 µM [rising, full curve, poor fit].

For the molecule `Cc1ccc(-n2nc3c(N4CCC(C(=O)NCCc5ccco5)CC4)nnc(C)c3c2C)cc1`, the cell number change is 80.2%. Besides, the half-maximal activity concentration (AC50) under setting [1] was 23.1 µM [rising, single point]. For the same molecule, the AC50 under setting [2] was 0.58 µM [rising, single point].

Turning to `Cc1ccc(NC(=O)OCc2ccccc2S(C)=O)cc1` (stereo unspecified), the cell number change is -1.43%. Further, under setting [2], the half-maximal activity concentration (AC50) is 0.58 µM [rising, single point].

`CCOC(=O)C1(Cc2cccc(Cl)c2)CCCN(C(=O)c2cc(CC)on2)C1` (stereo unspecified): the AC50 under setting [2] is 4.61 µM [falling, single point].

Turning to `Nc1cccc2c1C(=O)N(CC(=O)NC13CC4CC(CC(C4)C1)C3)C2=O`, the cell number change is -40.4%. Also, under setting [1], the AC50 was 8.2 µM [falling, partial curve, poor fit]. The AC50 under setting [2] is 14.6 µM [falling, partial curve].

For `O=C(CCN1C(=O)C2C3C=CC(C3)C2C1=O)N1CCN(c2ccc(F)cc2)CC1` (stereo unspecified), the cell number change is 7.23%. In addition, the AC50 under setting [2] was 23.1 µM [rising, single point].

For `CCCCC(=O)Nc1cccc(NC(=O)C(C)C)c1`, the AC50 under setting [2] was 4.11 µM [rising, partial curve].

For `CNc1nc(SCc2ccccc2)nc(N2CCOCC2)n1`, the cell number change was determined as 303%. Also, the AC50 under setting [1] is 13 µM [rising, partial curve]. Besides, the AC50 under setting [2] was 3.66 µM [rising, partial curve].

Take `COc1cccc(-c2cc(=O)c3cc(NC(=O)c4ccc(N(C)C)cc4)ccc3[nH]2)c1`: the cell number change is -53.9%. The half-maximal activity concentration (AC50) under setting [1] is 25.9 µM [falling, partial curve]. Further, under setting [2], the AC50 is 20.6 µM [falling, partial curve].

Regarding `S=c1[nH]nc(Cc2sc(-c3ccccc3)nc2-c2ccccc2)o1`, under setting [1], the AC50 is 6.51 µM [rising, single point].

As for `Cc1cc(C)n(CCNC(=O)c2cc(COc3c(F)cccc3F)on2)n1`, the cell number change is -15.9%. Moreover, under setting [2], the concentration at half-maximal activity (AC50) was 0.103 µM [falling, full curve, poor fit].

As to `COc1ccc(S(=O)(=O)N2CCCCC2)cc1C(=O)N1CCCC1`, the cell number change came out at 26.9%. Also, under setting [2], the AC50 was 8.2 µM [rising, partial curve].

Turning to `COc1cc(/C=N/NC(=O)C(C)n2nnc3ccccc32)ccc1O` (stereo unspecified), under setting [2], the AC50 was 0.103 µM [rising, full curve, poor fit].

For the molecule `COc1ccccc1C(c1nnnn1CS(=O)(=O)c1ccc(C)cc1)N1CCSCC1` (stereo unspecified), the cell number change was -9.12%. Under setting [2], the half-maximal activity concentration (AC50) was 5.17 µM [rising, partial curve].

As for `O=C(Nc1cccnc1)Nc1ccc(F)c(Cl)c1`, the cell number change is 3.2%. The AC50 under setting [1] is 2.91 µM [rising, single point]. Also, under setting [2], the AC50 was 29.1 µM [rising, single point].

On to `CCc1ccc(N(C(=O)CNC(=O)c2cccs2)C(C(=O)NC(C)(C)C)c2cc(OC)c(OC)c(OC)c2)cc1` (stereo unspecified), for which the cell number change is 11.5%. Besides, the concentration at half-maximal activity (AC50) under setting [2] is 2.06 µM [rising, partial curve].

As for `CCOc1ccc(N2C(N)=NC(N)=NC2(C)C)cc1`, the cell number change is -31.5%. Under setting [1], the half-maximal activity concentration (AC50) was 29.1 µM [falling, single point]. In addition, the AC50 under setting [2] is 23.1 µM [falling, single point].

Consider `CC(C)c1ccc(Cc2nnc(NCCCO)[nH]c2=O)cc1`, for which the cell number change is -7.75%. In addition, under setting [2], the AC50 was 23.1 µM [rising, single point].

`CCc1ccc(OCC(=O)NC(NC(=S)Nc2ccc(C)cc2C)C(Cl)(Cl)Cl)cc1` (stereo unspecified): the cell number change is -22.5%. The AC50 under setting [2] was 18.4 µM [falling, partial curve].

Take `CN(Cc1ccc(F)cc1Cl)S(=O)(=O)c1cccs1`: the cell number change was -2.56%. Moreover, under setting [2], the concentration at half-maximal activity (AC50) was 10.3 µM [rising, partial curve].

Consider `Cc1ccc(-c2oc3ncnc(N)c3c2-c2ccc(C)cc2)cc1`, for which the AC50 under setting [2] was 0.58 µM [rising, single point].

In the case of `Nc1ccc(C(=O)Nc2nc3ccccc3s2)cc1`, the concentration at half-maximal activity (AC50) under setting [1] is 0.326 µM [rising, full curve, poor fit] and the half-maximal activity concentration (AC50) under setting [2] was 0.731 µM [rising, partial curve].

Regarding `CCOc1ccc(CN(C)CC(=O)Nc2ccc3c(c2)CCC3)cc1OC`, the cell number change is -11.4%. Under setting [2], the half-maximal activity concentration (AC50) is 29.1 µM [falling, single point].
